Test [1] deals with T1, Lupus La protein (human (endogenous in MDA-MB-231)) (UniProt P05455).
T1 sequence: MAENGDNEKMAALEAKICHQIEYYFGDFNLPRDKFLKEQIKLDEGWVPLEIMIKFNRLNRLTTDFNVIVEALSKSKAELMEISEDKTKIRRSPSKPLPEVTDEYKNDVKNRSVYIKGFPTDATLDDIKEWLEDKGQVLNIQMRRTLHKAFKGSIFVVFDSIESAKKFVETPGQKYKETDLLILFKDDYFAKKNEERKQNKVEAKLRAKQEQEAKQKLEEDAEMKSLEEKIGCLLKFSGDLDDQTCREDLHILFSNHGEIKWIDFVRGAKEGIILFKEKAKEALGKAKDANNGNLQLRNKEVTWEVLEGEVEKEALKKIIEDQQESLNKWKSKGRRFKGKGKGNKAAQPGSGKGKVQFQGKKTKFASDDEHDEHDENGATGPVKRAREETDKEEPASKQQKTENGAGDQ
Nature of the test: co-IP; MDA-MB-231 WT cells lysed in IP buffer (20 mM HEPES pH 7.4, 100 mM KCl, 5 mM MgCl2, 1% TX-100); 5 ug mouse anti-La antibody or IgG isotype control with Protein A/G agarose beads, overnight, 4°C; immunoblot. Background: A western blot detects proteins with antibodies after separation by electrophoresis.

Test [2] has as its target T1, Lupus La protein (human (endogenous in MDA-MB-231)). Kind of test: co-IP; exosomes immunoisolated from MDA-MB-231 HA-CD63-mEGFP^ECL1 cells with GFP-Trap beads, lysed in IP buffer; 5 ug mouse anti-La antibody or IgG isotype control with Protein A/G agarose beads, overnight, 4°C; immunoblot.

These are yes or no findings as the source states them, for the method shown. Binding seen in cells or lysates may run through a third protein. Some results given as binding are weak or reduced against the parent protein; the word gives no strength.

On to “selective autophagy receptor p62 (from UniProt Q13501 1-440)”, for which the binding entry in test [1] and in test [2] was “binds” throughout.

Source of the values: doi:10.1101/2025.03.20.644464.
